Results taken from article PMC9811263.
These are yes or no findings as the source states them, for the method shown. For part of these data: Binding seen in cells or lysates may run through a third protein. Some entries that bind do so weakly or less than the wild type. Where a sequence is shown, tags or fusion partners need not be part of it. Each block holds one binder with its values, some of them ahead of it.

Columns and labels:
[1] = target: T1, CARK3-YFP^C (Arabidopsis) (UniProt O80719); assay: split reporter; BiFC; YFP^N/YFP^C combinations co-expressed in 4-week old tobacco leaves via Agrobacteria GV3101; YFP signal observed after 2 days by confocal microscopy
T1 sequence: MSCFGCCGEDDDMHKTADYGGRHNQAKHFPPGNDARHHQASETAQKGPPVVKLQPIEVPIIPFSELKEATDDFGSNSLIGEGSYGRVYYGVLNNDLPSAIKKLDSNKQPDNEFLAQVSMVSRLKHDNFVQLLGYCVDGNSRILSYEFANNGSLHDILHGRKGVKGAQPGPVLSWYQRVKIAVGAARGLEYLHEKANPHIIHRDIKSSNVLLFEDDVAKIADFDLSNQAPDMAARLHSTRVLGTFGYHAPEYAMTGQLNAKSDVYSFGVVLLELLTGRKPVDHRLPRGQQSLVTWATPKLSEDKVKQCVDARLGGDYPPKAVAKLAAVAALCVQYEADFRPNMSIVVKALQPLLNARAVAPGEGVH

GST-CARK3 (Arabidopsis) = target: T2, GST-CARK3 (Arabidopsis) (UniProt O80719); assay: pull-down; 5 μg GST-CARK3 or GST bound to glutathione-agarose beads incubated with His-ADF4; 50 mM Tris-HCl pH 8.0, 200 mM NaCl, 10% glycerol, 0.1% Tween 20; room temperature, 30 min; immunoblot with GST and His antibodies; both purified
T2 sequence: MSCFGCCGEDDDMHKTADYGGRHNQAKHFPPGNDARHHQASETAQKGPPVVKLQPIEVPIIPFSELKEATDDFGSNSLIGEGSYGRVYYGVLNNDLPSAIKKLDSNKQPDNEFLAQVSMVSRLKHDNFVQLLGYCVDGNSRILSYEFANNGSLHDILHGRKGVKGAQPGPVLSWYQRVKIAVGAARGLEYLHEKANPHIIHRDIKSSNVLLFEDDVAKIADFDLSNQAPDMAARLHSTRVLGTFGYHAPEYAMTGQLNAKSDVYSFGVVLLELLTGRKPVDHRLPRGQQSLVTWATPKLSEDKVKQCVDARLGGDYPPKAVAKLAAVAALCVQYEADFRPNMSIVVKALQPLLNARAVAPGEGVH

14-3-3κ (Arabidopsis) = target: T3, 14-3-3κ (Arabidopsis) (UniProt P48348); assay: split reporter; BiFC; YFP^N/YFP^C combinations co-expressed in 4-week old tobacco leaves via Agrobacteria GV3101; YFP signal observed after 2 days by confocal microscopy
T3 sequence: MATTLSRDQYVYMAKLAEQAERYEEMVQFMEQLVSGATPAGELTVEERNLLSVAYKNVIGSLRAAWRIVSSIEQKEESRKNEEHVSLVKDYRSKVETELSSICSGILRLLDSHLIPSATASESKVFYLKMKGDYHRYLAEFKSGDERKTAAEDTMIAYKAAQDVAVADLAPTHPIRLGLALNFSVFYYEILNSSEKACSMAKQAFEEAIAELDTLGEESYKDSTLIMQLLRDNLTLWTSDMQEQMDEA

binding [1]: binds
B1: ADF4-YFP^N (protein, UniProt Q9ZSK3 1-139)
chain: MANAASGMAVHDDCKLRFLELKAKRTHRFIVYKIEEKQKQVIVEKVGEPILTYEDFAASLPADECRYAIYDFDFVTAENCQKSKIFFIAWCPDVAKVRSKMIYASSKDRFKRELDGIQVELQATDPTEMDLDVLKSRVN

binding (GST-CARK3 (Arabidopsis)): binds
B2: His-ADF4 (protein, UniProt Q9ZSK3 1-139)
chain: MANAASGMAVHDDCKLRFLELKAKRTHRFIVYKIEEKQKQVIVEKVGEPILTYEDFAASLPADECRYAIYDFDFVTAENCQKSKIFFIAWCPDVAKVRSKMIYASSKDRFKRELDGIQVELQATDPTEMDLDVLKSRVN

binding (14-3-3κ (Arabidopsis)): no binding
B3: CARK3-YFP^C (enzyme, UniProt O80719 1-365)
chain: MSCFGCCGEDDDMHKTADYGGRHNQAKHFPPGNDARHHQASETAQKGPPVVKLQPIEVPIIPFSELKEATDDFGSNSLIGEGSYGRVYYGVLNNDLPSAIKKLDSNKQPDNEFLAQVSMVSRLKHDNFVQLLGYCVDGNSRILSYEFANNGSLHDILHGRKGVKGAQPGPVLSWYQRVKIAVGAARGLEYLHEKANPHIIHRDIKSSNVLLFEDDVAKIADFDLSNQAPDMAARLHSTRVLGTFGYHAPEYAMTGQLNAKSDVYSFGVVLLELLTGRKPVDHRLPRGQQSLVTWATPKLSEDKVKQCVDARLGGDYPPKAVAKLAAVAALCVQYEADFRPNMSIVVKALQPLLNARAVAPGEGVH
